Source: publication PMC6027665, “Synthesis and Cytotoxicity Evaluation of Novel Asymmetrical Mono-Carbonyl Analogs of Curcumin (AMACs) against Vero, HeLa, and MCF7 Cell Lines” (Scientia Pharmaceutica, 2018)

Experiments:
[1] = system: HeLa cell lines (human cervix carcinoma, ATCC CCL-2); experiment: MTT proliferation assay, HeLa cell lines; type: cell-based; conditions: Selectivity Index = IC50 value normal cell (Vero)/IC50 value cancer cell (Hela)
Procedure: (§1) The cytotoxic activity of the synthesized compounds was evaluated against human cervix carcinoma (HeLa, ATCC CCL-2) cell lines, human estrogen-dependent breast carcinoma (MCF7, ATCC HTB-22) cell lines, and kidney of an African green monkey (Vero, ATCC CCL-81) as a normal cell lines using the methyl thiazolyl tetrazolium (MTT) method conducted according to the MTT assay protocol published by the American Type Culture Collection (ATCC). Cisplatin was used as a reference drug. Curcumin was also evaluated as a comparative compound on the tests against Vero and MCF7 cell lines, and doxorubicin was evaluated as an additional comparator on the test against MCF7 cell lines. The assay detects the reduction of yellow tetrazolium (MTT) by metabolically active cells to be purple formazan measured using spectrophotometry.
(§2) The cells lines were seeded into 96-well plates at a density of 5000 cells per well, replenished with growth media consisting of Dulbecco’s Modified Eagle’s medium (D-MEM) for Vero or Roswell Park Memorial Institute (RPMI) 1640 medium for MCF7 and HeLa, 5% Fetal Bovine Serum (FBS), 100 U/mL penicillin, and 100 μg/mL streptomycin. The cells were incubated at 37 °C in 5% CO2 for 24 h. Then, a series concentrations of the tested compounds (1.5, 3.1, 6.2, 12.5, 25.0, 50.0, 100.0, and 200.0 µg/mL) were added to each well of the plate and incubated for 48 h. After that, 10 μL fresh solution of MTT reagent was added to each well, and the plate was incubated in a CO2 incubator at 37 °C for 4 h. After the purple precipitate was obtained, the cells were dissolved in ethanol and their optical density was recorded at 595 nm. The experiment was performed in triplicate. Percent proliferation inhibition was calculated using the following formula: Viability cells inhibition (%)=100−[(At−Ab)/(Ac−Ab)] ×100%
(§3) At = absorption of test compound, Ab = absorption of blank, Ac = absorption of control.
(§4) The concentration of the synthesized compounds required to inhibit 50% of the growth of the cell lines (IC50 values) was calculated by analyzing the relationship between concentrations and percent (%) inhibitions using GraphPad Prism 7 version 7.00 for Windows, GraphPad Software, La Jolla, CA, USA, www.graphpad.com.

[2] = system: MCF7 cell lines (human estrogen-dependent breast carcinoma, ATCC HTB-22); experiment: MTT proliferation assay, MCF7 cell lines; type: cell-based; conditions: Selectivity Index = IC50 value normal cell (Vero)/IC50 value cancer cell (MCF7)
Procedure: as §1, §2, §3, §4

N.N.[Cl][Pt][Cl] [Cisplatin, reference compound]
SI Hela [1]: 1.26
SI MCF7 [2]: 6.61

COc1cc(/C=C2\CCC/C(=C\c3ccccc3)C2=O)ccc1O [Compound 1a, (2E,6E)-2-[(4-hydroxy-3-methoxyphenyl)methylidene]-6-(phenylmethylidene)cyclohexan-1-one]
SI Hela [1]: <1
SI MCF7 [2]: <1

COc1ccc(/C=C2\CCC/C(=C\c3ccc(O)c(OC)c3)C2=O)cc1 [Compound 1b, (2E,6E)-2-[(4-hydroxy-3-methoxyphenyl)methylidene]-6-[(4-methoxyphenyl)methylidene] cyclohexan-1-one]
SI Hela [1]: <1
SI MCF7 [2]: 1.96

COc1cc(/C=C2\CCC/C(=C\c3ccc(F)cc3)C2=O)ccc1O [Compound 1c, (2E,6E)-2-[(4-hydroxy-3-methoxyphenyl)methylidene]-6-[(4-fluorophenyl)methylidene] cyclohexan-1-one]
SI Hela [1]: <1

COc1cc(/C=C2\CCC/C(=C\c3ccc(Cl)cc3)C2=O)ccc1O [Compound 1d, (2E,6E)-2-[(4-hydroxy-3-methoxyphenyl)methylidene]-6-[(4-chlorophenyl)methylidene] cyclohexan-1-one]
SI Hela [1]: <1
SI MCF7 [2]: <1

COc1cc(/C=C2\CCC/C(=C\c3ccc(C)cc3)C2=O)ccc1O [Compound 1e, (2E,6E)-2-[(4-hydroxy-3-methoxyphenyl)methylidene]-6-[(4-methylphenyl)methylidene] cyclohexan-1-one]
SI Hela [1]: <1
SI MCF7 [2]: 1.55

CCN(CC)Cc1cc(/C=C2\CCC/C(=C\c3ccccc3)C2=O)cc(OC)c1O [Compound 2a, (2E,6E)-2-({3-[(diethylamino)methyl]-4-hydroxy-5-methoxyphenyl}methylidene)-6-(phenylmethylidene)cyclohexan-1-one]
SI Hela [1]: <1

CCN(CC)Cc1cc(/C=C2\CCC/C(=C\c3ccc(OC)cc3)C2=O)cc(OC)c1O [Compound 2b, (2E,6E)-2-({3-[(diethylamino)methyl]-4-hydroxy-5-methoxyphenyl}methylidene)-6-[(4-methoxyphenyl)methylidene]cyclohexan-1-one]
SI Hela [1]: <1

CCN(CC)Cc1cc(/C=C2\CCC/C(=C\c3ccc(F)cc3)C2=O)cc(OC)c1O [Compound 2c, (2E,6E)-2-({3-[(diethylamino)methyl]-4-hydroxy-5-methoxyphenyl}methylidene)-6-[(4-fluorophenyl)methylidene]cyclohexan-1-one]
SI Hela [1]: <1

CCN(CC)Cc1cc(/C=C2\CCC/C(=C\c3ccc(Cl)cc3)C2=O)cc(OC)c1O [Compound 2d, (2E,6E)-2-({3-[(diethylamino)methyl]-4-hydroxy-5-methoxyphenyl}methylidene)-6-[(4-chlorophenyl)methylidene]cyclohexan-1-one]
SI Hela [1]: <1

CCN(CC)Cc1cc(/C=C2\CCC/C(=C\c3ccc(C)cc3)C2=O)cc(OC)c1O [Compound 2e, (2E,6E)-2-({3-[(diethylamino)methyl]-4-hydroxy-5-methoxyphenyl}methylidene)-6-[(4-methylphenyl)methylidene]cyclohexan-1-one]
SI Hela [1]: <1
SI MCF7 [2]: 1.03

COc1cc(/C=C/C(=O)CC(=O)/C=C/c2ccc(O)c(OC)c2)ccc1O [Curcumin]
SI MCF7 [2]: 3.00
